Source: publication PMC8970474
Results are given in words; binding and its absence hold for the method and conditions named. In cells and extracts the contact can be indirect. Here binding means that the protein was enriched with, or labelled near, the bait; the list need not be complete. For part of these data: A no says only that the protein was not detected with the bait. For part of these data: Sequences can lack the tags named with a protein.

By UniProt entry, the sequences of proteins in these tests, tags left out. Residues count along the entry.
UniProt P59215: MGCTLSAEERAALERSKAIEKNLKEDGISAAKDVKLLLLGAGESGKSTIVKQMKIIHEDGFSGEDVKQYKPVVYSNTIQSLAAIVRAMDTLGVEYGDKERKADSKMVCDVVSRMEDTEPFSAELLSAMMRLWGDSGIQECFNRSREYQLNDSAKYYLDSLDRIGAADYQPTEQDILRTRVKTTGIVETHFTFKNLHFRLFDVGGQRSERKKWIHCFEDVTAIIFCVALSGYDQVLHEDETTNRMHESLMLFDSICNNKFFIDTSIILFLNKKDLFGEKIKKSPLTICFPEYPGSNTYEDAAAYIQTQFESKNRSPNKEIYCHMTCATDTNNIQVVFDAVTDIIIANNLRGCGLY
UniProt P28471, residues 36-552: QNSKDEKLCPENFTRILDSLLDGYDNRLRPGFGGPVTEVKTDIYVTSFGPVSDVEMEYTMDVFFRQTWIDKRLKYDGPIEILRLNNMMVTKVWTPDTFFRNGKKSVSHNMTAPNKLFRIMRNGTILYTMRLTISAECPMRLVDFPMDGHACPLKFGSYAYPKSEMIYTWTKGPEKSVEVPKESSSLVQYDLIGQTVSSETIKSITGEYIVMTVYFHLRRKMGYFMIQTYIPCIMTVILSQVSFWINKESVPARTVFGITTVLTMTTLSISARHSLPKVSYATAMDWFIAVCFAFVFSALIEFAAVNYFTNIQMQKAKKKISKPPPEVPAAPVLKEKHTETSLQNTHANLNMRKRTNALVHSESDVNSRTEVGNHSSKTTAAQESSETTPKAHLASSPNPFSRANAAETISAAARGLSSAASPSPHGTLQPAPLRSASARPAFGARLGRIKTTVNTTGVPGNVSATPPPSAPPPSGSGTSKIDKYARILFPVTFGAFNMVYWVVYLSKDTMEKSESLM
UniProt P63138, residues 26-474: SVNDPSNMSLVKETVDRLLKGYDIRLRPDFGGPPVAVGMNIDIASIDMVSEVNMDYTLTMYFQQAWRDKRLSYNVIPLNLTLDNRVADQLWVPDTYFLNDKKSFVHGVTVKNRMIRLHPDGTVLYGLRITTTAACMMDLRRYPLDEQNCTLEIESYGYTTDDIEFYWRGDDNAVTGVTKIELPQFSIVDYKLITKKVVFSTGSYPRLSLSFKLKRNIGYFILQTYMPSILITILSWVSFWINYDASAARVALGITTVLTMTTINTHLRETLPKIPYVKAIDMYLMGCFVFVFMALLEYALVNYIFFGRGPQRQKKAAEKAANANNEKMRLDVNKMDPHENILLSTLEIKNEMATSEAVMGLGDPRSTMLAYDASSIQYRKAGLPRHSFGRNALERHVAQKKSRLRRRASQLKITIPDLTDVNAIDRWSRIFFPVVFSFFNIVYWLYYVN
UniProt P62813, residues 28-455: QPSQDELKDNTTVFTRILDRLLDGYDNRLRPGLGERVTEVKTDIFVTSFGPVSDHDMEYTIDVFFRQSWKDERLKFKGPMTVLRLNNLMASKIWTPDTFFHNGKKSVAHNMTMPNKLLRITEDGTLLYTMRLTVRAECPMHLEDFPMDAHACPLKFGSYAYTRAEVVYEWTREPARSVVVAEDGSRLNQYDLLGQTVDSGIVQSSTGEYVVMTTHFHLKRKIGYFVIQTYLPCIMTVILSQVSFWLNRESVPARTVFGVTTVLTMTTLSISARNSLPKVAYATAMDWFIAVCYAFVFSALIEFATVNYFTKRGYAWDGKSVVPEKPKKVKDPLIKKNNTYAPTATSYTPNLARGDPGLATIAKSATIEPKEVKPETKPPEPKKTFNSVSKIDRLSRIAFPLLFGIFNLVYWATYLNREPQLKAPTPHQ
UniProt P63079, residues 26-473: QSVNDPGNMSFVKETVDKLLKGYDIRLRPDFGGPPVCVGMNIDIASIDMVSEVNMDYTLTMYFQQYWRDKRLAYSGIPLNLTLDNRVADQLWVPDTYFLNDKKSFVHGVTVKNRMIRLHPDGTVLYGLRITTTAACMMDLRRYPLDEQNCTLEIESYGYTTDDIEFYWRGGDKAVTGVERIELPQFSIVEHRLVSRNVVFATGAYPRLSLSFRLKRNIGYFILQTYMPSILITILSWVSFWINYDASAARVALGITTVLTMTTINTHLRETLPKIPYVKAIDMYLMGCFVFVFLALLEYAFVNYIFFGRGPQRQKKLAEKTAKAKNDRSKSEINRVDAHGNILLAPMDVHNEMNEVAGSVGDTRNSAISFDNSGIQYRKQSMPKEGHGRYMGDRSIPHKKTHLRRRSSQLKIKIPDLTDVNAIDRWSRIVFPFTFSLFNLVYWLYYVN
UniProt Q5I6B8: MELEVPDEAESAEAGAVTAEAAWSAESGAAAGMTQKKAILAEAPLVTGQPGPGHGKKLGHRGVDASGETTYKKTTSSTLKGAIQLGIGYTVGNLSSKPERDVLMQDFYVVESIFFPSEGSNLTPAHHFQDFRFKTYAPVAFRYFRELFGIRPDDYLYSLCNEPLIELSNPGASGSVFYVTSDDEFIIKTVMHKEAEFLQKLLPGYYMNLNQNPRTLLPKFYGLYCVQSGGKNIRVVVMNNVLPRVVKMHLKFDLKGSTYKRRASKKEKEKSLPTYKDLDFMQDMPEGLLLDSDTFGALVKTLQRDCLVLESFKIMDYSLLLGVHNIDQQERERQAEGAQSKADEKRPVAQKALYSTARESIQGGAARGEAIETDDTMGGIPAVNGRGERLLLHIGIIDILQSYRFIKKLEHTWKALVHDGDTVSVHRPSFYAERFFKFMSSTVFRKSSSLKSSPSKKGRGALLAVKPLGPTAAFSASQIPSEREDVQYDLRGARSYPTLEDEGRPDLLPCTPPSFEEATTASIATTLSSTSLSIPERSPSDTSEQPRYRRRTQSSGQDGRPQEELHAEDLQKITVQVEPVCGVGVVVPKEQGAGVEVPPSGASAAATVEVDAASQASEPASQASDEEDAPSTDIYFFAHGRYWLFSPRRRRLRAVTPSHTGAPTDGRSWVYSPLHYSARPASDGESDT
UniProt P31016, residues 403-724: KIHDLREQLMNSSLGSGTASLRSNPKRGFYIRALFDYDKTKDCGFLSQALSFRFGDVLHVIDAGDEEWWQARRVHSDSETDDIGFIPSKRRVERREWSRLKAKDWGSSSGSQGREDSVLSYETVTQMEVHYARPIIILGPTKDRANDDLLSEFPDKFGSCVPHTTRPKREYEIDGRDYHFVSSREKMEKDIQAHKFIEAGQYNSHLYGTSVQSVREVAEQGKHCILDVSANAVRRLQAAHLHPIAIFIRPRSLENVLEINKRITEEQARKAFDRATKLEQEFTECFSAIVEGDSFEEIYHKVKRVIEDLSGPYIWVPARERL
UniProt P34926: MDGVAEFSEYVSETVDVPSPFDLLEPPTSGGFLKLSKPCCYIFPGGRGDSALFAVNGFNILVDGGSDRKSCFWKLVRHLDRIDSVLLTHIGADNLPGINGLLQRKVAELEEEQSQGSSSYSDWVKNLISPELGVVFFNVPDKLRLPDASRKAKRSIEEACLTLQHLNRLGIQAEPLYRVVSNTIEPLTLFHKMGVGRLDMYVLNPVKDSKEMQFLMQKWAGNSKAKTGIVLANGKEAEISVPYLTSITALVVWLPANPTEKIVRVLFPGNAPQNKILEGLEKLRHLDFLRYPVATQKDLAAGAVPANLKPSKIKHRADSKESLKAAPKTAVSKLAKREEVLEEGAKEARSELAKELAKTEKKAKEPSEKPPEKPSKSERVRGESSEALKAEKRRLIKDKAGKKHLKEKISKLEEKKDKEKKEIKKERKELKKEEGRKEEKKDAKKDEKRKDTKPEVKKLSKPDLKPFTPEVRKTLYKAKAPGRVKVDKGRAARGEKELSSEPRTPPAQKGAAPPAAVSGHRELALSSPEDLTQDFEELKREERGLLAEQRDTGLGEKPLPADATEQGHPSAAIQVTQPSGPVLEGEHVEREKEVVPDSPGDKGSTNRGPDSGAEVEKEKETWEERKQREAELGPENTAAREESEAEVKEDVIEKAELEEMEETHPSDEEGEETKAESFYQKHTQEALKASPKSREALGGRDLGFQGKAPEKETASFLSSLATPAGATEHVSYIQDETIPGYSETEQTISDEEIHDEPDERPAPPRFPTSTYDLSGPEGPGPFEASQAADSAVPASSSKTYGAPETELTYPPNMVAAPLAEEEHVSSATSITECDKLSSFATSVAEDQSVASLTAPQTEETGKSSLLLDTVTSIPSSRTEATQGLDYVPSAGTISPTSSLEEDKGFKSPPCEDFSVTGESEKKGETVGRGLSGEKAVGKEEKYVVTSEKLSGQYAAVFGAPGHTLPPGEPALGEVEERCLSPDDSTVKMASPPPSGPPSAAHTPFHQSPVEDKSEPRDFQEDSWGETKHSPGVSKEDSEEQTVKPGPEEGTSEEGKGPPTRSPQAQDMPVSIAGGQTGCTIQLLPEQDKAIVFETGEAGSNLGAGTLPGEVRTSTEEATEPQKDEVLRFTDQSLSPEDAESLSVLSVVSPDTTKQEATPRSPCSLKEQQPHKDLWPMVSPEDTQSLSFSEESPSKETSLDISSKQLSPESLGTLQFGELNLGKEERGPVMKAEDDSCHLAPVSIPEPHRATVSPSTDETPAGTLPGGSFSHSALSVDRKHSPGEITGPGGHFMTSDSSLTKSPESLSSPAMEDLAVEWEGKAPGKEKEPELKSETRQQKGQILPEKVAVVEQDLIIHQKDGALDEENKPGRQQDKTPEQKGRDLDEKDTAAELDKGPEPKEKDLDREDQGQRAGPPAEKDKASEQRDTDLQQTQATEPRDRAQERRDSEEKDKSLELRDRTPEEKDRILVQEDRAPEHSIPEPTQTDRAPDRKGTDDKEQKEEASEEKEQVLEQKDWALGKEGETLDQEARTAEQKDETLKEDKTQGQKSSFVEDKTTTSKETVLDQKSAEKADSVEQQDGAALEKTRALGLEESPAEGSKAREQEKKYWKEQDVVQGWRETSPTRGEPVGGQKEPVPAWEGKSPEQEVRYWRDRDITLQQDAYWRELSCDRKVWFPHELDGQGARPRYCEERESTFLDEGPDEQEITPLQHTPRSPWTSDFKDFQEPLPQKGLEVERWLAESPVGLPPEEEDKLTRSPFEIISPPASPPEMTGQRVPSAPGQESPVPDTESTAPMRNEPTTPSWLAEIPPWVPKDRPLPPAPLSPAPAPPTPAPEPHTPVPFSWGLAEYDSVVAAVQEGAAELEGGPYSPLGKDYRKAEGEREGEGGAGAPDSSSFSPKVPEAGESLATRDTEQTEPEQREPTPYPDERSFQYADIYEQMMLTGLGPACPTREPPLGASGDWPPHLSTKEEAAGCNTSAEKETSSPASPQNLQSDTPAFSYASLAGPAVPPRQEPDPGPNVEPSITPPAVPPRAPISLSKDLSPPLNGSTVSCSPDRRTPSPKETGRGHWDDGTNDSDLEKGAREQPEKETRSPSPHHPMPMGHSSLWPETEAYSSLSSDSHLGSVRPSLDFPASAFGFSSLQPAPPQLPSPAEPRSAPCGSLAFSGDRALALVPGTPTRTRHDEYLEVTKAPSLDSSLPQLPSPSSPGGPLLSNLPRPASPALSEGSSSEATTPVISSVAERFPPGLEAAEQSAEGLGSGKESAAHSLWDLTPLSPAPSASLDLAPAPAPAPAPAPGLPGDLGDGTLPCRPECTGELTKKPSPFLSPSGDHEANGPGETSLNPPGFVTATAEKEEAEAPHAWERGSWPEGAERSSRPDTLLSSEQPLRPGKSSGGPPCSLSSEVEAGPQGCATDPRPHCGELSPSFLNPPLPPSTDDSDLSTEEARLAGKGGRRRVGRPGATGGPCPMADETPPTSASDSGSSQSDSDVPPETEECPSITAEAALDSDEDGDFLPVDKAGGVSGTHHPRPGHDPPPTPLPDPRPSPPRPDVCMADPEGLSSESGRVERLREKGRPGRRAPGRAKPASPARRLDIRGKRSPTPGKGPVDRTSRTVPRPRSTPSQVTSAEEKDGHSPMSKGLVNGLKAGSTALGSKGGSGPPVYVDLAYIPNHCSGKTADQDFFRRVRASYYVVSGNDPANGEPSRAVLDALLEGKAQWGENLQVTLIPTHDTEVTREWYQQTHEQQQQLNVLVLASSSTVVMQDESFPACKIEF
UniProt Q5XI81: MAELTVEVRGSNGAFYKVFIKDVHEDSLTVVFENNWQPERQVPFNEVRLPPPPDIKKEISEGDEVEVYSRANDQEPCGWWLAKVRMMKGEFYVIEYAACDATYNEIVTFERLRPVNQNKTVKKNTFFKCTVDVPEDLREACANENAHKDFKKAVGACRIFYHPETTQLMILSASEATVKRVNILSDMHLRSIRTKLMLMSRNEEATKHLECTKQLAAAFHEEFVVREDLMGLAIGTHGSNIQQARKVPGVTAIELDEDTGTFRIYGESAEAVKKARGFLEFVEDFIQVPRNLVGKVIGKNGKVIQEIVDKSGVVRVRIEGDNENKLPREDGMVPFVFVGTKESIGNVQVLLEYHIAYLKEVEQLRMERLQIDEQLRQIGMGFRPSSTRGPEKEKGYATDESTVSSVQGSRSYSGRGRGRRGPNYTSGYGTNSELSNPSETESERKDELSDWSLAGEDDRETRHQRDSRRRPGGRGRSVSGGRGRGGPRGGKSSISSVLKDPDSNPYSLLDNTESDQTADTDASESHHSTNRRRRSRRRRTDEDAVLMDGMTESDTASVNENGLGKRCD

T1: GST-MPP2-SH3GK (mouse) (UniProt Q9WV34)
T1 sequence: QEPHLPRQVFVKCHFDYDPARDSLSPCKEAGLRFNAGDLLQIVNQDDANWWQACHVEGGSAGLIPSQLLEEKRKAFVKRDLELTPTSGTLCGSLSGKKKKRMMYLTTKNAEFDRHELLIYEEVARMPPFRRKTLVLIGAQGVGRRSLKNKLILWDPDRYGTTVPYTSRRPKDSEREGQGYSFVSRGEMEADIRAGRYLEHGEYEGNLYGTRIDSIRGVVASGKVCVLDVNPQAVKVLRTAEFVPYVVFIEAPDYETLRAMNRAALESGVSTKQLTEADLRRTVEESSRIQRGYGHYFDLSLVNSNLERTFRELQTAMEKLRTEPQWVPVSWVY


Each molecule was assayed against T1, GST-MPP2-SH3GK (mouse) (assay: affinity purification with mass spectrometry; GST-SH3GK proteins on glutathione agarose, 3 hours with lysate of adult rat brain crude synaptosomes (1% Triton-X/PBS), 3 washes PBS/1% Triton X-100; SDS-PAGE, 16O/18O-labelling, nanoLC-MS/MS; duplicates with inverted labelling; only the target purified).

Row | Molecule | binding
1 | Arhgef2 (Rho guanine nucleotide exchange factor 2), endogenous (protein, UniProt Q5FVC2 1-985) MSRIESLTRARIDRSKEQATKTREKEKMKEAKDARYTNGHLFTTISVSGMTMCYACNKSITAKEALICPTCNVTIHNRCKDTLANCTKVKQKQQKAALLRNNTALQSVSLRSKTTTRERPTSAIYPSDSFRQSLLGSRRGLSSLSLAKSVSTTNIAGHFNDESPLGLRQILSQSTDSLNMRNRTLSVESLIDEGVEVFYNELMSDFEMDEKDFEADSWSLAVDSSFLQQHKKEVMKKQDVIYELIQTELHHVRTLKIMTRLFRTGMLEELQMEPEVVQGLFPCVDELSDIHTRFLSQLLERRRQALCPGSTRNFVIHRLGDLLISQFSGSNAEQMRKTYSEFCSRHTKALKLYKELYARDKRFQQFIRKMTRSAVLKRHGVQECILLVTQRITKYPVLINRILQNSHGIEEEYQDLAAALGLVKELLSNVDQDVHELEKEARLQEIYNRMDPRAQTPVPGKGPFGRDELLRRKLIHDGCLLWKTATGRFKDVLLLLMTDVLVFLQEKDQKYIFTSLDKPSVVSLQNLIVRDIANQAKGMFLISSGPPEMYEVHAASRDDRTTWIRVIQQSVRLCPSREDFPLIETEDKAYLRRIKTKLQQKNQALVELLQMNVELFAEMVHFQALKAGFIGMPPPTLPRGLFRLESFESLRGERLLKDALREVEGLKDLLLGPCVDLPLTAREPALPVEADSGSCPGVTANGEARTFNGSIELCRADSDSSQKDRNGNQLRSPQEEALQPLVNLYGLLQGLQAVVVQQERLMEALFPEGPERWEKLSRANSRDGEAGRAAVASVTPEKQATELALLQRQHSLLQEELRRCQRLGEERATEAGSLEARLRESEQARALLEREAEEIRRQLAALGQNEPLPAEAPWARRPLDPRRRSLPAGDALYLSFNPPQPSRGHDRLDLPVTVRSLHRPFDDREAQELGSPEDRLQDSSDPDTCSEEEVSSRLSPPHSPRDFTRMQDIPEETESRDGEPTASES | binds
2 | Farp1 (FERM, ARHGEF, and pleckstrin domain-containing protein 1), endogenous (protein, UniProt F1LYQ8 1-1049) MGEIEQKPTPASRLGAPENSGISTLERGQKPPPTPSGKLMTVKIQMLDDTQEAFEVPQRAPGKVLFDAVCNHLNLVEGDYFGLEFPDHRKIVVWLDLLKPIVKQIRRPKHVLVKFVVKFFPPDHTQLQEELTRYLFALQVKQDLAQGRLTCNDTSAALLISHIVQSEIGDFDEALDREHLAKNKYVPQQDALEDKIVEFHHSHIGQTPAESDFQLLEVARRLEMYGIRLHPAKDREGTKINLAVANTGILVFQGFTKINAFNWAKVRKLSFKRKRFLIKLRPDVNSSYQDTLEFLMAGRDFCKSFWKICVEHHAFFRLFEEPKPKPKPVLFSRGSSFRFSGRTQKQVLDYVKEGGHKKVQFERKHSKIHSTRSLVSQPTAPNSEVPKQSPQSASLTFGEGTESPSAQSCQQAKETKVCTLEPGPRQSPALSKSPSGSKAADGTAAAAPPEEEDEEEGGKDGIRPSNPQPPQPSTGSLTGSPHLSELSINSQGGAAPANVTLSPNLSPDNKQASPLISPLLNDQACPRTDDEEEGRRKRFPTDKAYYIAKEVSTTERTYLKDLEVIASWFQSTVSKEDSMPEALKSLIFPNFEPLHKFHTNFLKEIEQRLALWEGRSNAHIRGDYQRIGDVMLKNIQGMKHLAAHLWKHSEALEALETSIKGSRRLEHFCRDFELQKVCYLPLNTFLLRPLHRLMHYKQVLERLCKHHPPNHADFRDCRAALAEITEMVAQLHGTMIKMENFQKLHELKKDLIGIDNLVIPGREFIRLGSLSKLSGKGLQQRMFFLFNDVLLYTSRGLTASNQFKVHGQLPLYGMTIEESEEEWGVPHCLTLRGQRQSIIVAASSRSEMEKWLEDIQMAIDLAEKSNGPTPELLASSPPDNKSPDEATAADQESEDDLSASRTSLERQAPHRGNTMVHVCWHRSTSVSMVDFSIAVENQLSGNLLRKFKNSNGWQKLWVVFTNFCLFFYKSHQDSHPLASLPLLGYSLTIPSESENIHKDYVFKLHFKSHVYYFRAESEYTFERWMEVIRSATSSASRAHSLSHKESHLY | binds
3 | SynCAM 1, endogenous (protein, UniProt Q6AYP5-1 48-476) QNLFTKDVTVIEGEVATISCQVNKSDDSVIQLLNPNRQTIYFRDFRPLKDSRFQLLNFSSSELKVSLTNVSISDEGRYFCQLYTDPPQESYTTITVLVPPRNLMIDIQKDTAVEGEEIEVNCTAMASKPATTIRWFKGNKELKGKSEVEEWSDMYTVTSQLMLKVHKEDDGVPVICQVEHPAVTGNLQTQRYLEVQYKPQVQIQMTYPLQGLTREGDAFELTCEATGKPQPVMVTWVRVDDEMPQHAVLSGPNLFINNLNKTDNGTYRCEASNTVGKAHSDYMLYVYDPPTTIPPPTTTTTTTTTTTTTTTILTIITDTTATTEPAVHGLTQLPNSAEELDSEDLSDSRAGEEGAIGAVDHAVIGGVVAVVVFAMLCLLIILGRYFARHKGTYFTHEAKGADDAADADTAIINAEGGQNNSEEKKEYFI | no binding

Biological target: T1, GST-MPP2-SH3GK (mouse)
Experiment: as above
Remark: another data set of the same source

Row | Molecule | binding
4 | Gnao1 (Guanine nucleotide-binding protein G(o) subunit alpha), endogenous (from UniProt P59215 1-354) | binds
5 | GABAA receptor subunit α4, endogenous (from UniProt P28471 36-552) | binds
6 | GABAA receptor subunit β2, endogenous (from UniProt P63138 26-474) | binds
7 | GABAAR α1 (Gamma-aminobutyric acid receptor subunit alpha-1), endogenous (from UniProt P62813 28-455) | binds
8 | Ppp3ca (Serine/threonine-protein phosphatase 2B catalytic subunit alpha isoform), endogenous (from UniProt P63329 1-521) (enzyme) | binds
9 | GABAAR β3 (Gamma-aminobutyric acid receptor subunit beta-3), endogenous (from UniProt P63079 26-473) | binds
10 | Pip5k1c (Phosphatidylinositol 4-phosphate 5-kinase type-1 gamma), endogenous (from UniProt Q5I6B8 1-688) (enzyme) | binds

These molecules were tested against GST-PSD-95-SH3GK (UniProt P31016) in the same assay as above.

Row | Molecule | binding
11 | Map1a, endogenous (from UniProt P34926 1-2774) | binds
12 | Fxr1, endogenous (from UniProt Q5XI81 1-568) | binds
